In the supplement of paper PMC11732987, “Enantioselective OTUD7B fragment discovery through chemoproteomics screening and high-throughput optimisation” (Communications Chemistry, 2025):
Some of the results follow. The data scatter; read single values as rough.

The chains behind the UniProt entries cited, without tags or fusion partners. Where a name states a change or a piece, a line headed by the entry shows the natural chain unless it says otherwise. Residues count along the entry.
UniProt Q8TDN6: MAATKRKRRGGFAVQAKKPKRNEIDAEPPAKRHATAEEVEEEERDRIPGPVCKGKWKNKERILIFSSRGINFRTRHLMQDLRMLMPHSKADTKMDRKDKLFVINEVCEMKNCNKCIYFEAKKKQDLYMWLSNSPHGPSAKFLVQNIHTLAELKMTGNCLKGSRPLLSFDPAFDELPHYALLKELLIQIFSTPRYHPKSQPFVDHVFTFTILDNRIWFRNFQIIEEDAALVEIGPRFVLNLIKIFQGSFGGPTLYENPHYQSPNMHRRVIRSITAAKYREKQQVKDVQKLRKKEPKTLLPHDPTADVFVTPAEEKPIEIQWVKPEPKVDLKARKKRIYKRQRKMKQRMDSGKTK
UniProt Q96RR4: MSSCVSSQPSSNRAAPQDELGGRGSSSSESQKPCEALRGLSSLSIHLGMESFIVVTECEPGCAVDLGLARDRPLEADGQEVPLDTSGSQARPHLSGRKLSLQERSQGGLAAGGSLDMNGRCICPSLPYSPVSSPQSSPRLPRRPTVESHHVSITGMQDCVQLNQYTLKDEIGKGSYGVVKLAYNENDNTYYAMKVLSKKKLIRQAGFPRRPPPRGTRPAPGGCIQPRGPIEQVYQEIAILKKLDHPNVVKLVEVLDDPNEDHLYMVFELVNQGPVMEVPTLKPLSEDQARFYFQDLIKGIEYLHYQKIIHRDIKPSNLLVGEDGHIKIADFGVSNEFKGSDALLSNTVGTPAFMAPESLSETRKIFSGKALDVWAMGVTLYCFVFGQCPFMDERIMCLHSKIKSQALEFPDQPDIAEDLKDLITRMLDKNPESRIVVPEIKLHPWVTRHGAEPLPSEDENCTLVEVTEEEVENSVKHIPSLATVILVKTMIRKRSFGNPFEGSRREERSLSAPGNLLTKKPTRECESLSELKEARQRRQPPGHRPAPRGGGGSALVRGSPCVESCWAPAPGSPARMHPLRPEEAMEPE
UniProt Q6PJG6: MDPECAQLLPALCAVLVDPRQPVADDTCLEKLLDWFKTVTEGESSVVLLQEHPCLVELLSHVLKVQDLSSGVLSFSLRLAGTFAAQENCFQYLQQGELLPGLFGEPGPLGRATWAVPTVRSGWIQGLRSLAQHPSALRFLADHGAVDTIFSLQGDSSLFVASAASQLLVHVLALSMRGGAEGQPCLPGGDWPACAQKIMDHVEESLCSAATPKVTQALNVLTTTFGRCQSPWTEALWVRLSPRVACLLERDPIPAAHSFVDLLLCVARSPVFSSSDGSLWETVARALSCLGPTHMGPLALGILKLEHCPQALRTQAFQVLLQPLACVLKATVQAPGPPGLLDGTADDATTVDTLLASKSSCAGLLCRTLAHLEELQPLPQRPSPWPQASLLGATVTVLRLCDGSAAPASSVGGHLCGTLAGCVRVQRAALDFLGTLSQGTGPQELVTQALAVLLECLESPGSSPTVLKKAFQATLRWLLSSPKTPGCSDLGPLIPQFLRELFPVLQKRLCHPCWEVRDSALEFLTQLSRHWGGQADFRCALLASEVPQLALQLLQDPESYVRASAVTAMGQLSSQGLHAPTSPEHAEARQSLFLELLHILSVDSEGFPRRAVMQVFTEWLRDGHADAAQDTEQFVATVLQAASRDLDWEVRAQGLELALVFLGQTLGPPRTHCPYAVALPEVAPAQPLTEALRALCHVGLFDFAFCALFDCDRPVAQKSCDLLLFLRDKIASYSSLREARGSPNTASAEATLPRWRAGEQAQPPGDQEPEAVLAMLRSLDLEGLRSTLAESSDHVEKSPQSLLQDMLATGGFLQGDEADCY
UniProt Q9Y6E2: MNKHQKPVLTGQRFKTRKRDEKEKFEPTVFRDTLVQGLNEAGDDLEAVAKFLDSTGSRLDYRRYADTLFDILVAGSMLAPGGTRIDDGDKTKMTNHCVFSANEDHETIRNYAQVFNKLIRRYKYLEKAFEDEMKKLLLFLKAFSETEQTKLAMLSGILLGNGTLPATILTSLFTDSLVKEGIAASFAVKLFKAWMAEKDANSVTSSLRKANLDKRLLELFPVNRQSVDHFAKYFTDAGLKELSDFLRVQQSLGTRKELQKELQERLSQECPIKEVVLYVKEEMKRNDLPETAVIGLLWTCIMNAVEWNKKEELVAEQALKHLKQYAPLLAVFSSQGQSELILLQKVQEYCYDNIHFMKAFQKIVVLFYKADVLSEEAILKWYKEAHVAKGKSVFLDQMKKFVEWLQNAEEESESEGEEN
UniProt O43683: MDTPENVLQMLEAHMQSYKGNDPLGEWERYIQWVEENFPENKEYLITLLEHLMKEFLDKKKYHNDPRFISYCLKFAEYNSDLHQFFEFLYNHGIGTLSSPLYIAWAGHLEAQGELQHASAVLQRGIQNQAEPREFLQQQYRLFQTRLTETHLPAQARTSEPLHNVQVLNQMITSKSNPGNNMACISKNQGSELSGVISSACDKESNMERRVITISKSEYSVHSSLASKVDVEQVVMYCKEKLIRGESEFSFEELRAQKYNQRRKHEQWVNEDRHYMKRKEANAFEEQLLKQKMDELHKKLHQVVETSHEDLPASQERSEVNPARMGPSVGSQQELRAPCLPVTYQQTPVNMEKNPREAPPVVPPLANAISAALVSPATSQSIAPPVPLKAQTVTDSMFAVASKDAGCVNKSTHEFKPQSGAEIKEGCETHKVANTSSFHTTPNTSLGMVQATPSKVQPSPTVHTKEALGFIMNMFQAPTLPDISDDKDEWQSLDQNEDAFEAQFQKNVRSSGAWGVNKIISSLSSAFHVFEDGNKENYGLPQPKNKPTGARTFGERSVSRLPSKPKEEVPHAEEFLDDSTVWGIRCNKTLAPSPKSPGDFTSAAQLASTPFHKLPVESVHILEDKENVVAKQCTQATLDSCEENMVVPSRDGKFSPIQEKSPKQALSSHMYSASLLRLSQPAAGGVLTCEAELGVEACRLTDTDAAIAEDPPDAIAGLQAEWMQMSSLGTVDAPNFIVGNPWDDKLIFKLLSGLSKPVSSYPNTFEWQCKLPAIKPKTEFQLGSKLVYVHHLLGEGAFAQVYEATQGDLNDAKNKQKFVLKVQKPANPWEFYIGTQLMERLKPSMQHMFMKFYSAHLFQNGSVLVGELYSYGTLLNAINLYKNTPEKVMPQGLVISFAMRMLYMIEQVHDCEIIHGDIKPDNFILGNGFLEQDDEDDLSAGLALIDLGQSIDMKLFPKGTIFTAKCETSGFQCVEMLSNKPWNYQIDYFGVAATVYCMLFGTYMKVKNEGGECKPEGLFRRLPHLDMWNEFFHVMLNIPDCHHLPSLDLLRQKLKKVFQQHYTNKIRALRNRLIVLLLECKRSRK
UniProt Q9HA77: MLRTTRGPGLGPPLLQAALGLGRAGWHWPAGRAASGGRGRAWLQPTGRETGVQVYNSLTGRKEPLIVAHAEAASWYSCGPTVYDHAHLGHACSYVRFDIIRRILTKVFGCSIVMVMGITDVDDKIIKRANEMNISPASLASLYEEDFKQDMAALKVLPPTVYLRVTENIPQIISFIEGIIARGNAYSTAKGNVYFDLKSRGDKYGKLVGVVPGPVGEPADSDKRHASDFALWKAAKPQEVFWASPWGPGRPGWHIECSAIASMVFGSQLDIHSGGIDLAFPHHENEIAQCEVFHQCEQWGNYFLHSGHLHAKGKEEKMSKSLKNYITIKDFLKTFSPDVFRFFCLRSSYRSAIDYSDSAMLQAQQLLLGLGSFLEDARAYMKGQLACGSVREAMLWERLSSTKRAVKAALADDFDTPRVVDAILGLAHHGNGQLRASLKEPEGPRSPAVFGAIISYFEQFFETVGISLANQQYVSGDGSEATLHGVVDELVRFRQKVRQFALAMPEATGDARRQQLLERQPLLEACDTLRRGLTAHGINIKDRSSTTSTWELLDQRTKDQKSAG
UniProt Q8NFC6, 2321-2346: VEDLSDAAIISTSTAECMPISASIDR

What follows are targets tested with ClCC(=O)N[C@H]1CCCc2ccccc12 (assay: log2 mean competition ratio of IA-DTB cysteine labelling (DMSO/compound) (log2 ratio); higher = stronger cysteine engagement by compound). Details: 200 µM; treatment time: 4 h; cell line lysate: HEK293T.
Procedure: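 IA-DTB competitive cysteine chemoproteomics in HEK293T RIPA lysate. Lysates were treated with compound 29 or 30 at 50 or 200 µM for 4 h, then IA-DTB (500 µM, 1 h), trypsin-digested, NeutrAvidin-enriched and analysed by diaPASEF. Competition ratio = intensity DMSO / intensity compound (n=4 treated, n=64 DMSO); binding: mean log2 CR ≥ 1 and p ≤ 0.05 plus QC filters. Target is the cysteine site.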

Target | log2 mean competition ratio
BRIX1 C52 (UniProt Q8TDN6) | -0.117
CAMKK2 C4 (UniProt Q96RR4) | 0.0904
BRAT1 C246 (UniProt Q6PJG6) | 0.304
BZW2 C350 (UniProt Q9Y6E2) | -0.455
C3orf80 C177 | 0.0158
BTF3 C22 (UniProt P20290) | -0.157
BUB1 C407 (UniProt O43683) | 0.359
CARS2 C526 (UniProt Q9HA77) | 0.198
BOD1L1 C2337 (UniProt Q8NFC6) | -0.0755
BRAT1 C487 (UniProt Q6PJG6) | 0.25
